Literature values as cited in patent US20170151256A1, “ANTITUMOR AGENT” (ZERIA PHARMACEUTICAL CO., LTD., priority 2005, published 2017).
The structures given here were assigned with low confidence; some may be wrong.

Protein sequences, listed by entry. Tags and fused reporters are not part of them.
UniProt P30553, whole entry: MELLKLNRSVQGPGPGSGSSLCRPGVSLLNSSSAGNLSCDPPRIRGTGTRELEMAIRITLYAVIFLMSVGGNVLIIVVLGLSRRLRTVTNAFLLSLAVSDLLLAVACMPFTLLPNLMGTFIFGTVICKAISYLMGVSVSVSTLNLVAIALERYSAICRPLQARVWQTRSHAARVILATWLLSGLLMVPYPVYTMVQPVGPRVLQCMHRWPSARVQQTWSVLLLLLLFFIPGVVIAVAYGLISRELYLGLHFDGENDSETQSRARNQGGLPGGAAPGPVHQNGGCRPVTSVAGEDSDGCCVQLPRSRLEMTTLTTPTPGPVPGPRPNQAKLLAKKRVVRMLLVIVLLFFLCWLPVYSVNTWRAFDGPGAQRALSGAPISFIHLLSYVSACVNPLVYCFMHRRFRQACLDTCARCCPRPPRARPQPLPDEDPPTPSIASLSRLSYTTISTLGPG

Key:
[1] = test system: gastrin-stimulated gastric acid secretion; settings: intraduodenal administration, rat; Gastroenterology 2001; A-311: 1605; cited from earlier work
rat gastrin receptor = rat gastrin receptor (Rattus norvegicus, UniProt P30553); settings: read-out: Ki value, binding affinity to rat gastrin receptor; Gastroenterology 2001; A-311: 1605; cited from earlier work

## CC(C)(C)C(=O)CN1C(=O)[C@H](NC(=O)Nc2cccc(C(=O)O)c2)CN(C2CCCCC2)c2ccccc21 [compound A, (R)-(−)-3-[3-(1-tert-butylcarbonylmethyl-2-oxo-5-cyclohexyl-1,3,4,5-tetrahydro-2H-1,5-benzodiazepin-3-yl)ureido]benzoic acid]
[1]
  Dose suppressing gastrin-stimulated gastric acid secretion by 50%: 0.17 mg/kg
Rat gastrin receptor
  Ki: 0.24 nM
